Six sequences from patent publication US20210380978 can be followed below.

The exact form of at least one protein or probe is not confirmed. Where cells or extracts were used, other partners may take part. Weaker means in comparison with the reference protein, sequence or condition of that experiment. Where a protein sequence is shown, tags need not be part of it.

This series concerns the target T1, HNRNPH1 (endogenous, cell lysate) (Homo sapiens) (UniProt P31943).
T1 sequence (looked up, limits assumed): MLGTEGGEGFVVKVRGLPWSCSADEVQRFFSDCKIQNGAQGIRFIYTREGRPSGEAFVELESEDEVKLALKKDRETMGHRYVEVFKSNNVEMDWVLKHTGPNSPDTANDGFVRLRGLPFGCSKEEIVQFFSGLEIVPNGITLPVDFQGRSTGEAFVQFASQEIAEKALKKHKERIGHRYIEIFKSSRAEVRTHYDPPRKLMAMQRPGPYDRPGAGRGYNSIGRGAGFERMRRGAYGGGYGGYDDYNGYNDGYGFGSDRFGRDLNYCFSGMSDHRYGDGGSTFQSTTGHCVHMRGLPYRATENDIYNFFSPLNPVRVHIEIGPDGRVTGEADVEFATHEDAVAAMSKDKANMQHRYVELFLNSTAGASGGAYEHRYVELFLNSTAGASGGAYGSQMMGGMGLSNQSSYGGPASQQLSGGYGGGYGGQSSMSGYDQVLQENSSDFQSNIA
The series can be described thus: pull-down. Conditions: protein in an extract.

[1] abbreviates: biotinylated 300-nt RNA in cell lysate, 4 C, western blot, label: biotin-16-UTP.

Consider “ATTGGCGGGGTCTCGGTGGGGGCGGGCCGGTTGCCGGGGGGAGCTGGAGTCACGTGACGGCCGGCGCGG / CTCCAGCTCCCCCCGGCAAC [INCA1 fragment F4 annealed with ASO H1B]”, for which the binding result (ASO fully 2'-MOE and PS, ASO H1B blocks the binding site, dose-dependent reduction, label: biotin-16-UTP on F4) is “binds more weakly”. Regarding “ATTGGCGGGGTCTCGGTGGGGGCGGGCCGGTTGCCGGGGGGAGCTGGAGTCACGTGACGGCCGGCGCGG / GCGACTATACGCGCAATATG [INCA1 fragment F4 with control ASO NC]”, the binding result (ASO fully 2'-MOE and PS, control ASO has no effect on binding, label: biotin-16-UTP on F4) is listed as “binds”.

“AUUGGCGGGGUCUCGGUGGGGGCGGGCCGGUUGCCGGGGGGAGCUGGAGUCACGUGACGGCCGGCGCGG”: the binding result under setting [1] is recorded as “binds”.

As for “CCGCUGUGGCUGUGGUGGGCGGUAGGGGCUUUUACCGUGUGAGCUCCUUUAAUGCCGGGGUCUGCAGUG”, under setting [1], the binding result was “binds”. Take “CUGGGUGGAAGUUGGGGGUGGGACGGCGCCGGGAGGCCGGGGAGGCAGCGGCGAAAGGCGGCGGGCGG”: the binding result under setting [1] was “binds”.

Turning to “UGAAUAGAAGGAGGGUUGAGGGGAUAUGGUGUGGAAUGGGGGAAGGAGGAGUCUGAAAUAGAAGAAAGA”, the binding result under setting [1] was “binds”.
